The target in this assay is ADP ribosylation factor-like GTPase 2 (Arl2), HA-tagged (human) (UniProt P36404). Nature of the assay: co-IP.

By UniProt entry, the sequences of proteins in these tests, tags left out.
UniProt P36404: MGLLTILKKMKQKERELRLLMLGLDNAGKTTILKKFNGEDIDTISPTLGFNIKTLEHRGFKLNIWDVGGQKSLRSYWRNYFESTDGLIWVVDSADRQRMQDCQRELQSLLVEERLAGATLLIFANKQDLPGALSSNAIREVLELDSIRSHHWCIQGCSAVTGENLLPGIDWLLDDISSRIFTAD
UniProt Q96SN8: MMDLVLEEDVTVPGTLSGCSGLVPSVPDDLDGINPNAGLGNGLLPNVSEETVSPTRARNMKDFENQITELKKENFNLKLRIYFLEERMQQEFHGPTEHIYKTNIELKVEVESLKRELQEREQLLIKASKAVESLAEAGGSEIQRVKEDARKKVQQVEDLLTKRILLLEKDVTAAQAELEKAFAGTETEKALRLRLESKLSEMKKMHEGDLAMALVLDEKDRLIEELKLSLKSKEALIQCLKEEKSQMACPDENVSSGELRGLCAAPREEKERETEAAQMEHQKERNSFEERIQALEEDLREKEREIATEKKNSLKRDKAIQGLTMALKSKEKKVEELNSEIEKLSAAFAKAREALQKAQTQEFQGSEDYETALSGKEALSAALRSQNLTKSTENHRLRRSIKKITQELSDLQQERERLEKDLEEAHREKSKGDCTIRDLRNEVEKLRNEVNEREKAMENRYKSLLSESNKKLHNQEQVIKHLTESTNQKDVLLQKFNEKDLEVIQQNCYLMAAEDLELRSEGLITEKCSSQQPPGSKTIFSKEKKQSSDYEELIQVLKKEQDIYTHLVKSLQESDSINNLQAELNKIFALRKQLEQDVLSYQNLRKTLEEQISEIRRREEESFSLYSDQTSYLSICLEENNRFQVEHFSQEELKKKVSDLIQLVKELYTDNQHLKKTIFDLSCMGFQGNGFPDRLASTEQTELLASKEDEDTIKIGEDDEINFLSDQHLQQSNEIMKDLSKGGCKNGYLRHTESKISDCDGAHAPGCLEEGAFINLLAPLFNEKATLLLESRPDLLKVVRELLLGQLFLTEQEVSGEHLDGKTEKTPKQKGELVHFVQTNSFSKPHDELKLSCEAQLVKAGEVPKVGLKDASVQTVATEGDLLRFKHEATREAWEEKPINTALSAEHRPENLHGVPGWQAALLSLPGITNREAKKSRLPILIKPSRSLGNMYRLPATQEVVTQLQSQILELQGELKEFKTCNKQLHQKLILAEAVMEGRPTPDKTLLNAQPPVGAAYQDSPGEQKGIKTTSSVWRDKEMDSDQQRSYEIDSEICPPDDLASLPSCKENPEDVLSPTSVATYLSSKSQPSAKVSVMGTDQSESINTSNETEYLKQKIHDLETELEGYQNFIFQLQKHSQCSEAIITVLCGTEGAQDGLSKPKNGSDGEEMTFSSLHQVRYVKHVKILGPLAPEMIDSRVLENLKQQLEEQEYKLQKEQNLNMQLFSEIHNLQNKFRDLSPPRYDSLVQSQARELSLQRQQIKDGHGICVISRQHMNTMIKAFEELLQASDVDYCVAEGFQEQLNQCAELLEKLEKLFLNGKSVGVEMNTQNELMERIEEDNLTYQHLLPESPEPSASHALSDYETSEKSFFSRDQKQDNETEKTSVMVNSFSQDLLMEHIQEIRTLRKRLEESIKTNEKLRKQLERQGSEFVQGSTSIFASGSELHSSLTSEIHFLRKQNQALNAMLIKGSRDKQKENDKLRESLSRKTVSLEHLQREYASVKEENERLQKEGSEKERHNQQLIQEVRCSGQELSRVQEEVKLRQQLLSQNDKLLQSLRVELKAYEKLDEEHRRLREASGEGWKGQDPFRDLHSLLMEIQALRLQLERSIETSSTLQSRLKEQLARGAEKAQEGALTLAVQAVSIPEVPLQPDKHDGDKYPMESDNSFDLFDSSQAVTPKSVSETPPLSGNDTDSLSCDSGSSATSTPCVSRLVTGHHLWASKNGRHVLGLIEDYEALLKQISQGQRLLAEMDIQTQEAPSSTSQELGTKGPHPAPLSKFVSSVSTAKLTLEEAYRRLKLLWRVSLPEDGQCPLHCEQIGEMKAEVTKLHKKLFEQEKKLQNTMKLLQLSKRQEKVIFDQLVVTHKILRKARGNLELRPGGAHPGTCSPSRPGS

These are yes or no findings as the source states them, for the method shown. Binding seen in cells or lysates may run through a third protein. Some results given as binding are weak or reduced against the parent protein; the word gives no strength.

Take “CDK5 Regulatory Subunit Associated Protein 2 (Cdk5rap2/Cep215), Myc-tagged, in HEK293 cells (from UniProt Q96SN8 1-1893)”: the binding entry was “binds”.

For the origin of these results see paper doi:10.1101/2024.01.16.575964.
